{"source": "patent US6331520A", "about": "“Pharmaceutical compositions of peptides having low solubility in physiological medium” (Applied Research Systems ARS Holding NV, priority 1997, dated 2001)", "test": "hGRF stability in aqueous nicotinamide solutions adjusted to pH 7.5 (RP-HPLC)", "format": "physicochemical", "details": "hGRF 2 mg/ml", "key": {"[1]": {"details": "pH 7.5, +4° C., 4 WEEKS, 0% nicotinamide"}, "[2]": {"details": "pH 7.5, +4° C., 4 WEEKS, 5% nicotinamide"}, "[3]": {"details": "pH 7.5, +4° C., 4 WEEKS, 20% nicotinamide"}, "[4]": {"details": "pH 7.5, +4° C., 8 WEEKS, 0% nicotinamide"}, "[5]": {"details": "pH 7.5, +4° C., 8 WEEKS, 5% nicotinamide"}, "[6]": {"details": "pH 7.5, +4° C., 8 WEEKS, 20% nicotinamide"}, "[7]": {"details": "pH 7.5, +4° C., 12 WEEKS, 0% nicotinamide"}, "[8]": {"details": "pH 7.5, +4° C., 12 WEEKS, 5% nicotinamide"}, "[9]": {"details": "pH 7.5, +4° C., 12 WEEKS, 20% nicotinamide"}}, "note": "Part of at least one peptide drawing is inferred or uncertain, most often the ends.", "data": [{"compound": "CC[C@H](C)[C@H](NC(=O)[C@H](C)NC(=O)[C@H](CC(=O)O)NC(=O)[C@H](C)NC(=O)[C@@H](N)Cc1ccc(O)cc1)C(=O)N[C@@H](Cc1ccccc1)C(=O)N[C@H](C(=O)N[C@@H](CC(N)=O)C(=O)N[C@@H](CO)C(=O)N[C@@H](Cc1ccc(O)cc1)C(=O)N[C@@H](CCCNC(=N)N)C(=O)N[C@@H](CCCCN)C(=O)N[C@H](C(=O)N[C@@H](CC(C)C)C(=O)NCC(=O)N[C@@H](CCC(N)=O)C(=O)N[C@@H](CC(C)C)C(=O)N[C@@H](CO)C(=O)N[C@@H](C)C(=O)N[C@@H](CCCNC(=N)N)C(=O)N[C@@H](CCCCN)C(=O)N[C@@H](CC(C)C)C(=O)N[C@@H](CC(C)C)C(=O)N[C@@H](CCC(N)=O)C(=O)N[C@@H](CC(=O)O)C(=O)N[C@H](C(=O)N[C@@H](CCSC)C(=O)N[C@@H](CO)C(=O)N[C@@H](CCCNC(=N)N)C(N)=O)[C@@H](C)CC)C(C)C)[C@@H](C)O", "note": "[hGRF, hGRF(1-29)-NH2]", "values": [{"measurement": "peak area 4-29", "setting": "[1]", "value": 0, "unit": "%"}, {"measurement": "peak area GRF1-29", "setting": "[1]", "value": 95.4, "unit": "%"}, {"measurement": "peak area Succ-D3 ? + Asp^8 (not resolved)", "setting": "[1]", "value": 0.8, "unit": "%"}, {"measurement": "peak area Succ-N8 ?", "setting": "[1]", "value": 0.1, "unit": "%"}, {"measurement": "peak area β-Asp^3", "setting": "[1]", "value": 0.1, "unit": "%"}, {"measurement": "peak area β-Asp^8", "setting": "[1]", "value": 1.4, "unit": "%"}, {"measurement": "peak area 4-29", "setting": "[2]", "value": 0, "unit": "%"}, {"measurement": "peak area GRF1-29", "setting": "[2]", "value": 96.8, "unit": "%"}, {"measurement": "peak area Succ-D3 ? + Asp^8 (not resolved)", "setting": "[2]", "value": 0.6, "unit": "%"}, {"measurement": "peak area Succ-N8 ?", "setting": "[2]", "value": 0, "unit": "%"}, {"measurement": "peak area β-Asp^3", "setting": "[2]", "value": 0.1, "unit": "%"}, {"measurement": "peak area β-Asp^8", "setting": "[2]", "value": 0.9, "unit": "%"}, {"measurement": "peak area 4-29", "setting": "[3]", "value": 0, "unit": "%"}, {"measurement": "peak area GRF1-29", "setting": "[3]", "value": 97.4, "unit": "%"}, {"measurement": "peak area Succ-D3 ? + Asp^8 (not resolved)", "setting": "[3]", "value": 0.6, "unit": "%"}, {"measurement": "peak area Succ-N8 ?", "setting": "[3]", "value": 0, "unit": "%"}, {"measurement": "peak area β-Asp^3", "setting": "[3]", "value": 0.1, "unit": "%"}, {"measurement": "peak area β-Asp^8", "setting": "[3]", "value": 0.8, "unit": "%"}, {"measurement": "peak area 4-29", "setting": "[4]", "value": 0, "unit": "%"}, {"measurement": "peak area GRF1-29", "setting": "[4]", "value": 93.2, "unit": "%"}, {"measurement": "peak area Succ-D3 ? + Asp^8 (not resolved)", "setting": "[4]", "value": 1.1, "unit": "%"}, {"measurement": "peak area Succ-N8 ?", "setting": "[4]", "value": 0.1, "unit": "%"}, {"measurement": "peak area β-Asp^3", "setting": "[4]", "value": 0.2, "unit": "%"}, {"measurement": "peak area β-Asp^8", "setting": "[4]", "value": 2.4, "unit": "%"}, {"measurement": "peak area 4-29", "setting": "[5]", "value": 0, "unit": "%"}, {"measurement": "peak area GRF1-29", "setting": "[5]", "value": 95.8, "unit": "%"}, {"measurement": "peak area Succ-D3 ? + Asp^8 (not resolved)", "setting": "[5]", "value": 0.9, "unit": "%"}, {"measurement": "peak area Succ-N8 ?", "setting": "[5]", "value": 0.1, "unit": "%"}, {"measurement": "peak area β-Asp^3", "setting": "[5]", "value": 0.2, "unit": "%"}, {"measurement": "peak area β-Asp^8", "setting": "[5]", "value": 1.5, "unit": "%"}, {"measurement": "peak area 4-29", "setting": "[6]", "value": 0, "unit": "%"}, {"measurement": "peak area GRF1-29", "setting": "[6]", "value": 96.3, "unit": "%"}, {"measurement": "peak area Succ-D3 ? + Asp^8 (not resolved)", "setting": "[6]", "value": 0.8, "unit": "%"}, {"measurement": "peak area Succ-N8 ?", "setting": "[6]", "value": 0.1, "unit": "%"}, {"measurement": "peak area β-Asp^3", "setting": "[6]", "value": 0.2, "unit": "%"}, {"measurement": "peak area β-Asp^8", "setting": "[6]", "value": 1.4, "unit": "%"}, {"measurement": "peak area 4-29", "setting": "[7]", "value": 1.06, "unit": "%"}, {"measurement": "peak area GRF1-29", "setting": "[7]", "value": 89.9, "unit": "%"}, {"measurement": "peak area Succ-D3 ? + Asp^8 (not resolved)", "setting": "[7]", "value": 1.29, "unit": "%"}, {"measurement": "peak area Succ-N8 ?", "setting": "[7]", "value": 0.07, "unit": "%"}, {"measurement": "peak area β-Asp^3", "setting": "[7]", "value": 0.27, "unit": "%"}, {"measurement": "peak area β-Asp^8", "setting": "[7]", "value": 3.39, "unit": "%"}, {"measurement": "peak area 4-29", "setting": "[8]", "value": 0.28, "unit": "%"}, {"measurement": "peak area GRF1-29", "setting": "[8]", "value": 94.0, "unit": "%"}, {"measurement": "peak area Succ-D3 ? + Asp^8 (not resolved)", "setting": "[8]", "value": 0.97, "unit": "%"}, {"measurement": "peak area Succ-N8 ?", "setting": "[8]", "value": 0.11, "unit": "%"}, {"measurement": "peak area β-Asp^3", "setting": "[8]", "value": 0.26, "unit": "%"}, {"measurement": "peak area β-Asp^8", "setting": "[8]", "value": 2.12, "unit": "%"}, {"measurement": "peak area 4-29", "setting": "[9]", "value": 0.15, "unit": "%"}, {"measurement": "peak area GRF1-29", "setting": "[9]", "value": 95.1, "unit": "%"}, {"measurement": "peak area Succ-D3 ? + Asp^8 (not resolved)", "setting": "[9]", "value": 0.97, "unit": "%"}, {"measurement": "peak area Succ-N8 ?", "setting": "[9]", "value": 0.10, "unit": "%"}, {"measurement": "peak area β-Asp^3", "setting": "[9]", "value": 0.26, "unit": "%"}, {"measurement": "peak area β-Asp^8", "setting": "[9]", "value": 1.95, "unit": "%"}, {"measurement": "peak area 4-29", "setting": "pH 7.5, Time zero", "value": 0.1, "unit": "%"}, {"measurement": "peak area GRF1-29", "setting": "pH 7.5, Time zero", "value": 97.6, "unit": "%"}, {"measurement": "peak area Succ-D3 ? + Asp^8 (not resolved)", "setting": "pH 7.5, Time zero", "value": 0.6, "unit": "%"}, {"measurement": "peak area Succ-N8 ?", "setting": "pH 7.5, Time zero", "value": 0.3, "unit": "%"}, {"measurement": "peak area β-Asp^3", "setting": "pH 7.5, Time zero", "value": 0, "unit": "%"}, {"measurement": "peak area β-Asp^8", "setting": "pH 7.5, Time zero", "value": 0.2, "unit": "%"}]}]}
